# Test results taken from the supplement of paper PMC8728848.
# The other results are listed elsewhere or left out.
# B1: SabA (Helicobacter pylori) (protein)
# chain: MGSSHHHHHHSSGLVPRGSHMENLYFQGEDNGFFVSAGYQIGEAVQMVKNTGELKNLNEKYEQLSQYLNQVASLKQSIQNANNIELVNSSLNYLKSFTNNNYNSTTQSPIFNAVQAVITSVLGFWSLYAGNYFTFFVGKKVGDSGQPASVQGNPPFKTIIENCSGIENCAMDQTTYDKMKKLAEDLQAAQTNSATKGNNLCALSGCAATDSTSNPPNSTVSNALNLAQQLMDLIANTKTAMMWKNIVISGVSNTSGAITSTNYPTQYAVFNNIKAMIPILQQAVTLSQSNHTLSASLQAQATGSQTNPKFAKDIYTFAQNQKQVISYAQDIFNLFNSIPAEQYKYLEKAYLKIPNAGSTPTNPYRQVVNLNQEVQTIKNNVSYYGNRVDAALSVARDVYNLKSNQAEIVTAYNDAKTLSEEISKLPHNQVNTKDIVTLPYDKNAPAAGQSNYQINPEQQSNLNQALAAMSNNPFKKVGMISSQNNNGA
# Legend:
# Assay in all cases: glycan array binding signal (z-score within array); higher = stronger binding
# Details in all cases: glycan notation: IUPAC condensed, linker removed
# [1] = molecular target: Gal(b1-3)GlcNAc(b1-2)Man(a1-3)[Gal(b1-3)GlcNAc(b1-2)Man(a1-6)]Man(b1-4)GlcNAc(b1-4)GlcNAc
# Procedure, shortened: (§1)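 From the Consortium for Functional Glycomics database, 3228 arrays were curated, keeping only those whose protein sequence was available. Binding is given as a within-array Z-score averaged across arrays sharing a protein sequence and across linkers. Negative Z-scores can be read as non-binding.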
# [2] = molecular target: Gal(b1-3)GlcNAc(b1-2)Man(a1-3)[Gal(b1-3)GlcNAc(b1-2)Man(a1-6)]Man(b1-4)GlcNAc(b1-4)[Fuc(a1-6)]GlcNAc
# Procedure, shortened: as §1
# [3] = molecular target: Gal(b1-3)GlcNAc(b1-2)Man(a1-3)[GlcNAc(b1-4)][Gal(b1-3)GlcNAc(b1-2)Man(a1-6)]Man(b1-4)GlcNAc(b1-4)GlcNAc
# Procedure, shortened: as §1
# [4] = molecular target: Gal(b1-3)GlcNAc(b1-2)[Gal(b1-3)GlcNAc(b1-6)]Man(a1-6)[Gal(b1-3)GlcNAc(b1-2)Man(a1-3)]Man(b1-4)GlcNAc(b1-4)GlcNAc
# Procedure, shortened: as §1
# [5] = molecular target: Gal(b1-3)GlcNAc(b1-3)Gal(b1-3)GlcNAc
# Procedure, shortened: as §1
# [6] = molecular target: Gal(b1-3)GlcNAc(b1-3)Gal(b1-4)Glc
# Procedure, shortened: as §1
# [7] = molecular target: Gal(b1-3)GlcNAc(b1-3)Gal(b1-4)GlcNAc
# Procedure, shortened: as §1
# [8] = molecular target: Gal(b1-3)GlcNAc(b1-3)Gal(b1-4)GlcNAc(b1-2)Man(a1-3)[Gal(b1-3)GlcNAc(b1-3)Gal(b1-4)GlcNAc(b1-2)Man(a1-6)]Man(b1-4)GlcNAc(b1-4)GlcNAc
# Procedure, shortened: as §1
# [9] = molecular target: Gal(b1-3)GlcNAc(b1-3)Gal(b1-4)GlcNAc(b1-2)[Gal(b1-3)GlcNAc(b1-3)Gal(b1-4)GlcNAc(b1-6)]Man(a1-6)[Gal(b1-3)GlcNAc(b1-3)Gal(b1-4)GlcNAc(b1-2)Man(a1-3)]Man(b1-4)GlcNAc(b1-4)[Fuc(a1-6)]GlcNAc
# Procedure, shortened: as §1
# [10] = molecular target: Gal(b1-3)GlcNAc(b1-3)Gal(b1-4)GlcNAc(b1-3)Gal(b1-4)GlcNAc(b1-2)[Gal(b1-3)GlcNAc(b1-3)Gal(b1-4)GlcNAc(b1-3)Gal(b1-4)GlcNAc(b1-6)]Man(a1-6)[Gal(b1-3)GlcNAc(b1-3)Gal(b1-4)GlcNAc(b1-3)Gal(b1-4)GlcNAc(b1-2)Man(a1-3)]Man(b1-4)GlcNAc(b1-4)[Fuc(a1-6)]GlcNAc
# Procedure, shortened: as §1
# [11] = molecular target: Gal(b1-3)GlcNAc(b1-3)Gal(b1-4)GlcNAc(b1-6)[Gal(b1-3)GlcNAc(b1-3)]Gal(b1-4)Glc
# Procedure, shortened: as §1
# [12] = molecular target: Gal(b1-3)GlcNAc(b1-3)Gal(b1-4)[Fuc(a1-3)]GlcNAc
# Procedure, shortened: as §1
# [13] = molecular target: Gal(b1-3)GlcNAc(b1-3)Gal(b1-4)[Fuc(a1-3)]GlcNAc(b1-6)[Gal(b1-3)GlcNAc(b1-3)]Gal(b1-4)Glc
# Procedure, shortened: as §1
# [14] = molecular target: Gal(b1-3)GlcNAc(b1-3)GalNAc
# Procedure, shortened: as §1
# [15] = molecular target: Gal(b1-3)GlcNAc(b1-6)Gal(b1-4)GlcNAc
# Procedure, shortened: as §1
# [16] = molecular target: Gal(b1-3)GlcNAc(b1-6)GalNAc
# Procedure, shortened: as §1
# [17] = molecular target: Gal(b1-3)GlcNAc(b1-6)[Gal(b1-3)]GalNAc
# Procedure, shortened: as §1
# [18] = molecular target: Gal(b1-3)GlcNAc6S
# Procedure, shortened: as §1
# [19] = molecular target: Gal(b1-3)[Fuc(a1-4)]GlcNAc
# Procedure, shortened: as §1
# [20] = molecular target: Gal(b1-3)[Fuc(a1-4)]GlcNAc(b1-2)Man
# Procedure, shortened: as §1
# [21] = molecular target: Gal(b1-3)[Fuc(a1-4)]GlcNAc(b1-2)Man(a1-3)[Gal(b1-3)[Fuc(a1-4)]GlcNAc(b1-2)Man(a1-6)]Man(b1-4)GlcNAc(b1-4)[Fuc(a1-6)]GlcNAc
# Procedure, shortened: as §1
# [22] = molecular target: Gal(b1-3)[Fuc(a1-4)]GlcNAc(b1-3)Gal(b1-3)[Fuc(a1-4)]GlcNAc
# Procedure, shortened: as §1
# [23] = molecular target: Gal(b1-3)[Fuc(a1-4)]GlcNAc(b1-3)Gal(b1-4)[Fuc(a1-3)]GlcNAc
# Procedure, shortened: as §1
# [24] = molecular target: Gal(b1-3)[Fuc(a1-4)]GlcNAc(b1-6)GalNAc
# Procedure, shortened: as §1
# [25] = molecular target: Gal(b1-3)[GlcNAc(b1-6)]GalNAc
# Procedure, shortened: as §1
# [26] = molecular target: Gal(b1-3)[Neu5Ac(a2-6)]GalNAc
# Procedure, shortened: as §1
# [27] = molecular target: Gal(b1-3)[Neu5Ac(a2-6)]GlcNAc(b1-4)Gal(b1-4)Glc
# Procedure, shortened: as §1
# [28] = molecular target: Gal(b1-3)[Neu5Ac(b2-6)]GalNAc
# Procedure, shortened: as §1
# [29] = molecular target: Gal(b1-4)Gal
# Procedure, shortened: as §1
# [30] = molecular target: Gal(b1-4)GalNAc(a1-3)[Fuc(a1-2)]Gal(b1-4)GlcNAc
# Procedure, shortened: as §1
# [31] = molecular target: Gal(b1-4)GalNAc(b1-3)[Fuc(a1-2)]Gal(b1-4)GlcNAc
# Procedure, shortened: as §1
# [32] = molecular target: Gal(b1-4)Glc
# Procedure, shortened: as §1
# [33] = molecular target: Gal(b1-4)Glc6S
# Procedure, shortened: as §1
# [34] = molecular target: Gal(b1-4)GlcNAc
# Procedure, shortened: as §1
# [35] = molecular target: Gal(b1-4)GlcNAc(a1-6)Gal(b1-4)GlcNAc
# Procedure, shortened: as §1
# [36] = molecular target: Gal(b1-4)GlcNAc(b1-2)Man
# Procedure, shortened: as §1
# [37] = molecular target: Gal(b1-4)GlcNAc(b1-2)Man(a1-3)Man(b1-4)GlcNAc(b1-4)GlcNAc
# Procedure, shortened: as §1
binder,measurement,setting,value
B1,glycan array binding signal (z-score),[1],-0.656
same,glycan array binding signal (z-score),[2],0.385
same,glycan array binding signal (z-score),[3],0.404
same,glycan array binding signal (z-score),[4],1.42
same,glycan array binding signal (z-score),[5],-0.786
same,glycan array binding signal (z-score),[6],-0.658
same,glycan array binding signal (z-score),[7],-0.288
same,glycan array binding signal (z-score),[8],-0.507
same,glycan array binding signal (z-score),[9],-0.488
same,glycan array binding signal (z-score),[10],-0.301
same,glycan array binding signal (z-score),[11],-0.24
same,glycan array binding signal (z-score),[12],-0.454
same,glycan array binding signal (z-score),[13],-0.566
same,glycan array binding signal (z-score),[14],-0.702
same,glycan array binding signal (z-score),[15],-0.252
same,glycan array binding signal (z-score),[16],-1.03
same,glycan array binding signal (z-score),[17],-0.369
same,glycan array binding signal (z-score),[18],0.606
same,glycan array binding signal (z-score),[19],-0.241
same,glycan array binding signal (z-score),[20],0.555
same,glycan array binding signal (z-score),[21],0.33
same,glycan array binding signal (z-score),[22],-0.751
same,glycan array binding signal (z-score),[23],-0.356
same,glycan array binding signal (z-score),[24],-0.4
same,glycan array binding signal (z-score),[25],0.158
same,glycan array binding signal (z-score),[26],-0.119
same,glycan array binding signal (z-score),[27],0.532
same,glycan array binding signal (z-score),[28],-0.644
same,glycan array binding signal (z-score),[29],0.204
same,glycan array binding signal (z-score),[30],-0.578
same,glycan array binding signal (z-score),[31],-0.668
same,glycan array binding signal (z-score),[32],-0.545
same,glycan array binding signal (z-score),[33],0.12
same,glycan array binding signal (z-score),[34],-0.014
same,glycan array binding signal (z-score),[35],0.158
same,glycan array binding signal (z-score),[36],0.994
same,glycan array binding signal (z-score),[37],1.19

# An excerpt of these results, with bars between the fields.
binder | measurement | setting | value
B1 | glycan array binding signal (z-score) | [23] | -0.356
same | glycan array binding signal (z-score) | [32] | -0.545
